At least one compound was matched to its structure with a doubt left.
Assays:
GST-Q81 beads = test: Chemical absorption assay, Q81; type: binding; conditions: 25 μM of each (FIG. 6B)
Description: FIG. 6B is a graph of the percent of binding of various compounds to amyloid-like Q81 aggregates measured using a chemical absorption assay. The anti-amyloid compounds minocycline, Chrysamine G, Rolitetracycline, iota carrageenan, dextran 500 (dextran), or Congo red (25 μM of each) were pre-absorbed with Q81 GST recombinant protein and the percentage absorbance of the compound remaining in the supernatant after absorption with GST-Q81 beads is plotted on the y-axis.
To determine if Congo red and its derivatives directly bind to expanded polyglutamine aggregates, we designed a chemical absorption assay. This assay measures the remaining Congo red in the supernatant after incubating the supernatant with GST-tagged polyglutamine beads, and removing the GST-polyglutamine beads by centrifugation. This assay was carried out as follows. […] The percentage absorbance of the compound remaining in the supernatant after absorption with the GST-polyQ beads was then detected. […]
Binding of the above-identified compounds to amyloid-like Q81 aggregates was also assessed by a chemical absorption assay. The compounds indicated in FIG. 19 (25 μM of each) were pre-absorbed with a Q81 GST recombinant protein and the percentage absorbance of the compound remaining in the supernatant after absorption with GST-Q81 beads was then detected.

Q79-GFP aggregates = test: Decrease of pre-formed Q79-GFP aggregates in vitro; type: biochemical; conditions: 100 μM each; visually examined
Description: Q79-GFP was expressed and purified from bacteria using standard molecular biology techniques. These fusion proteins form aggregates in vitro which can be viewed under an inverted fluorescence microscope. The Q79-GFP aggregates were administered Congo red (1 nM to 100 μM) and the ability of Congo red to decrease the aggregate was visually assessed.
This assay was also carried out on Q79-GFP aggregates that were administered compounds known to disrupt other types of aggregates, for example, beta-amyloid fibril aggregates. The Q79-GFP aggregates were administered Iota-carrageenan, dextran, minocycline, rolitetracycline, or Chrysamine G Congo red (100 μM each), and visually examined for the effect of each compound on disruption of the aggregate, as well as the density and size of the aggregates.

| SMILES | binding to 81-repeat polyglutamine polypeptide (GST-Q81 beads) | dissolution or disruption of pre-formed expanded polyglutamine repeat aggregates (Q79-GFP aggregates) |
| --- | --- | --- |
| CN(C)[C@@H]1C(O)=C(C(=O)NCN2CCCC2)C(=O)[C@@]2(O)C(O)=C3C(=O)c4c(O)cccc4[C@@](C)(O)[C@H]3C[C@@H]12 [rolitetracycline] | binds to expanded polyglutamines | detected only after Congo red addition and daunomycin addition |
| CN(C)c1ccc(O)c2c1C[C@H]1C[C@H]3[C@H](N(C)C)C(O)=C(C(N)=O)C(=O)[C@@]3(O)C(O)=C1C2=O [minocycline] | binds to expanded polyglutamines | detected only after Congo red addition and daunomycin addition |

Reference: patent publication US20020155172A1, “Methods and compounds for decreasing cell toxicity or death” (priority 2000, published 2002)
